The values that follow come from doi:10.1101/2021.10.07.463531.

These are yes or no findings as the source states them, for the method shown. Binding seen in cells or lysates may run through a third protein. Some binding calls cover weakened binding; strength is not graded here. Where a sequence is shown, tags or fusion partners need not be part of it.

The assay has as its target T1, ANKS3-Flag (UniProt Q6ZW76).
T1 sequence: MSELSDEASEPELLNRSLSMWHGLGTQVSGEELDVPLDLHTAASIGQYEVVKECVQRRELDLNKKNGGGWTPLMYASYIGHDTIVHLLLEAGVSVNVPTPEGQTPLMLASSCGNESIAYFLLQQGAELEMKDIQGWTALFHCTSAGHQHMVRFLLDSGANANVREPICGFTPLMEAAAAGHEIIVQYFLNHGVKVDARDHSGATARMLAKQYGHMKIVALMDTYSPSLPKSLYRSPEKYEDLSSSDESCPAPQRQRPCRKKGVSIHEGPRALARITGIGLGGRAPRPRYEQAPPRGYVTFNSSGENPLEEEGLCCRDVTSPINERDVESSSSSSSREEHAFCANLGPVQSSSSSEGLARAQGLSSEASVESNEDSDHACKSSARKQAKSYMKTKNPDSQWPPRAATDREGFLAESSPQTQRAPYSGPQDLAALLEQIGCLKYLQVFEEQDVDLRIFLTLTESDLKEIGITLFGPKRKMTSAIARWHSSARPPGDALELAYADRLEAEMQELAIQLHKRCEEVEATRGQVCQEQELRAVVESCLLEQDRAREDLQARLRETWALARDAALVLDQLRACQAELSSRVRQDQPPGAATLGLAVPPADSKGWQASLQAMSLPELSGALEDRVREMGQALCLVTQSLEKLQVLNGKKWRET
Nature of the assay: pull-down.

B1: v5-ANKS6 (protein, UniProt Q68DC2 1-871)
chain: MGEGGLPPAFQLLLRACDQGDTETARRLLEPGAAEPAERGAEPEAGAEPAGAEVAGPGAAAAGAVGAPVPVDCSDEAGNTALQFAAAGGHEPLVRFLLRRGASVNSRNHYGWSALMQAARFGHVSVAHLLLDHGADVNAQNRLGASVLTVASRGGHLGVVKLLLEAGAFVDHHHPSGEQLGLGGSRDEPLDITALMAAIQHGHEAVVRLLMEWGADPNHAARTVGWSPLMLAALTGRLGVAQQLVEKGANPDHLSVLEKTAFEVALDCKHRDLVDYLDPLTTVRPKTDEEKRRPDIFHALKMGNFQLVKEIADEDPSHVNLVNGDGATPLMLAAVTGQLALVQLLVERHADVDKQDSVHGWTALMQATYHGNKEIVKYLLNQGADVTLRAKNGYTAFDLVMLLNDPDTELVRLLASVCMQVNKDKGRPSHQPPLPHSKVRQPWSIPVLPDDKGGLKSWWNRMSNRFRKLKLMQTLPRGLSSNQPLPFSDEPEPALDSTMRAAPQDKTSRSALPDAAPVTKDNGPGSTRGEKEDTLLTTMLRNGAPLTRLPSDKLKAVIPPFLPPSSFELWSSDRSRTRHNGKADPMKTALPQRASRGHPVGGGGTDTTPVRPVKFPSLPRSPASSANSGNFNHSPHSSGGSSGVGVSRHGGELLNRSGGSIDNVLSQIAAQRKKAAGLLEQKPSHRSSPVGPAPGSSPSELPASPAGGSAPVGKKLETSKRPPSGTSTTSKSTSPTLTPSPSPKGHTAESSVSSSSSHRQSKSSGGSSSGTITDEDELTGILKKLSLEKYQPIFEEQEVDMEAFLTLTDGDLKELGIKTDGSRQQILAAISELNAGKGRERQILQETIHNFHSSFESSASNTRAPGNSPCA
B1: the binding entry is given as “binds”.
